Laboratory results as given in article PMC10866993.
Results are given in words; binding and its absence hold for the method and conditions named. In cells and extracts the contact can be indirect. These calls come from enrichment with a bait or labelling near it, and not all partners need be listed.

T1: PF3D7_0823200 (P. falciparum (endogenous in 3D7 and NF54 parasites)) (UniProt Q8IB66)
T1 sequence: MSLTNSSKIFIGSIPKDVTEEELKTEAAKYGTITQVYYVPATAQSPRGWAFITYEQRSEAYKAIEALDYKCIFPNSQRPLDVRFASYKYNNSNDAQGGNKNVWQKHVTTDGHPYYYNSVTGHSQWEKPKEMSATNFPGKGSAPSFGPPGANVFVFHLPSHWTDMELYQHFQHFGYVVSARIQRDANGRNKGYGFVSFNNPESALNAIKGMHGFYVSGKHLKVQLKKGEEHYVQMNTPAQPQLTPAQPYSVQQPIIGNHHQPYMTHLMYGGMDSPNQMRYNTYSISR


Target: T1, PF3D7_0823200 (P. falciparum (endogenous in 3D7 and NF54 parasites))
Experiment: affinity purification with mass spectrometry; custom anti-PF3D7_0823200 antibody on DNase I-treated soluble protein extract of 3D7 parasites (late asexual stages), Dynabeads Protein A, washes up to 0.5 M NaCl, MudPIT; rabbit IgG as control; three independent experiments

Row | binding | Binder
1 | binds | CUGBP Elav-like family member 1 (PF3D7_1359400) (protein, UniProt Q8IDB7 1-509) MDDHENIDINDNSSDANTANYNQDKNENTSEVNDYSKEDIEGDENLKSSKGKQENNTKSSSDKDENTIDYGNHDFPCNPAPPVPIKLFIGRVPKNIEEDQLRPIFEEYGIVNEVVIIRDKITNVHKSSAFVKMASISEADNAIRLLNNQKTLDAQLGSLQVKYASGELNKLGFPQNIESGVDQAKLFIGSLPKNITEDNIKEMFSPYGTVEEVFIMKDNSTGLGKGCSFVKFSYKEQALYAIKSLNGKKTLEGCTRPVEVRFAEPKSSKQPQIPLTLQPMQNPPHAMAPQPSISSPNNINFGNNFSVNNNYPRQVGPWKEYYSGEGRPYYYNEQTNTTQWEMPKEFETLFMNNSANMHNLSESSGPPGANLFIFHVPNEWQQTDLIQAFSPFGELLSARIATEKNTGRNRGFAFVSYDSLESAAAAISQMNGFMALNKKLKVTVKKGEEDEMKKYVNQNGVNSFQQVPRVQKAIPAQPASMQPNLAYHQNPQAQNFFYSNSNSYRCGPY
2 | binds | CUGBP Elav-like family member 2 (PF3D7_1409800) (protein, UniProt Q8ILZ7 1-514) MSYLSNMSNMNNMNNSTQQYNNENSESPYGEARMSEQCSYQMNSPYNPAPSIPIKLFVSSIPKNLTEEDIKSIFQEYGNIQDVVFIKDKKPNVNRSNVFVRMESIFYGQKAIKDLHGKRTLCETLGPLIVKFAIGELEKYGVNMNNANENEAKLFVGSLPKEITEEELRELFNRYGNVTEVYIMKNSNGISKRCAFVNYAYKEQGIFAIQNMNGKIATENAEKPIEVRFAETKNQLQEKHLFNRSLMNPLNNNMNNMDNMNNMDNMENMDNFDNNNNNNNSSYMQSHAFKNMNMDNFNRYSMNMNFNMQNNNNNQRNNNNNNNGNNNNDNNNNNNINNNNSNGNNNNNSSSNNNSPWKQYYSKEEGRPYYHNEITGETQWQKPRKIEQSFINPINMNEITGPVGANIFIFHIPNEWIQTDLLSAFSPFGNIISAHIATERDTGRNRGFAFVSYDNVDSAINAVKYMNGFLAHKKKLKVTIKKGEEQYVQALINQRNKLNSNDARRNFMENTTNA
